Measurements as given in article PMC8826350, “Structural feature-driven pattern analysis for multitarget modulator landscapes” (Bioinformatics, 2021).

Assay: Fluorimetric analyses for auto-fluorescence
Details: concentrations up to 30 µM; excitation 360 and 485 nm

Structure (SMILES) | auto-fluorescence
Cc1onc(-c2ccccc2Cl)c1C(=O)N1CCN(Cc2nnnn2-c2ccc(F)cc2)CC1 [Compound 3] | Neither compound 3 nor compound 5 showed auto-fluorescence
COc1ccc(OCc2noc(CN3CCN(C(=O)C45CC6CC(CC(C6)C4)C5)CC3)n2)cc1 [Compound 5] | Neither compound 3 nor compound 5 showed auto-fluorescence
